No constants are given. Whether binding was seen depends on the method and setting. In cells and extracts the contact can be indirect. Some results given as binding are weak or reduced against the parent protein; the word gives no strength.

Protein sequences, listed by entry. Tags and fused reporters are not part of them. Residues count along the entry.
UniProt Q13233: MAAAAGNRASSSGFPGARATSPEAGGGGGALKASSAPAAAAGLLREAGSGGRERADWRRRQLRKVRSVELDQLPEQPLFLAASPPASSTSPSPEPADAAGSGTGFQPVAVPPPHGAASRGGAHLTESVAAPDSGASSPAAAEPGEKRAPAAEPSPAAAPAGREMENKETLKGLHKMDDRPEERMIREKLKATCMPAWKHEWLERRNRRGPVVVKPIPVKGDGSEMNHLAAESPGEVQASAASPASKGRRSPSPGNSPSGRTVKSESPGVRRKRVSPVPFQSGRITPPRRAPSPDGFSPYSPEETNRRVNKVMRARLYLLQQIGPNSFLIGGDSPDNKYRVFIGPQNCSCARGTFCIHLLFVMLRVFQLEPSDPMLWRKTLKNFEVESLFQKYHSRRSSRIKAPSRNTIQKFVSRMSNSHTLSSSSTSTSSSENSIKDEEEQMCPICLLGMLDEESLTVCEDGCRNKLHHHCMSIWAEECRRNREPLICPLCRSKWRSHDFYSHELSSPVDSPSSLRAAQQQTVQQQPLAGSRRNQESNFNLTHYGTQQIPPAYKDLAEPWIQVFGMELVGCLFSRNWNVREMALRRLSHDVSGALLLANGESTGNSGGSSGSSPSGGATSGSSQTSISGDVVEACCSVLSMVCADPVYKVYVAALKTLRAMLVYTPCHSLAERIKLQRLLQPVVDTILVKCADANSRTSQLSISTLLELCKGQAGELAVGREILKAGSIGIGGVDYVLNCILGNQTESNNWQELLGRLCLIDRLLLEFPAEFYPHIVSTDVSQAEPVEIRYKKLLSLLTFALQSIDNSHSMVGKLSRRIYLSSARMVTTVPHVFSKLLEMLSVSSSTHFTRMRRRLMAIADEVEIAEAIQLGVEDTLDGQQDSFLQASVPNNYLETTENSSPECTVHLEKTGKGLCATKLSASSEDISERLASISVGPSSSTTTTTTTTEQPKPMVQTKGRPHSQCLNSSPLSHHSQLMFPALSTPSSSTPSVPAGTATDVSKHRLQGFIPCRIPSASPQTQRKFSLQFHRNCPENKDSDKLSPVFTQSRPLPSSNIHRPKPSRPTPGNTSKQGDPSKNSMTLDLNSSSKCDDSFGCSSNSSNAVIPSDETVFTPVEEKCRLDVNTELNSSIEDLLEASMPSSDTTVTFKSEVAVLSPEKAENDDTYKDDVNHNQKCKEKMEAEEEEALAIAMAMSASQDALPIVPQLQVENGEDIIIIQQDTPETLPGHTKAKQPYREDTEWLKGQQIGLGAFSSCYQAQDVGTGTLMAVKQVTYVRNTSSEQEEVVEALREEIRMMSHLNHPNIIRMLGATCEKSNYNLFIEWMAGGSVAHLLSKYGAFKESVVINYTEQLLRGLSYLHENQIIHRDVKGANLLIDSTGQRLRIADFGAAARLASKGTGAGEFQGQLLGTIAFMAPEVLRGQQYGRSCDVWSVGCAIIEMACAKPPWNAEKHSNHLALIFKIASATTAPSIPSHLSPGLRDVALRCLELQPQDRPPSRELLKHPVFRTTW
UniProt P46531, residues 1754-2555: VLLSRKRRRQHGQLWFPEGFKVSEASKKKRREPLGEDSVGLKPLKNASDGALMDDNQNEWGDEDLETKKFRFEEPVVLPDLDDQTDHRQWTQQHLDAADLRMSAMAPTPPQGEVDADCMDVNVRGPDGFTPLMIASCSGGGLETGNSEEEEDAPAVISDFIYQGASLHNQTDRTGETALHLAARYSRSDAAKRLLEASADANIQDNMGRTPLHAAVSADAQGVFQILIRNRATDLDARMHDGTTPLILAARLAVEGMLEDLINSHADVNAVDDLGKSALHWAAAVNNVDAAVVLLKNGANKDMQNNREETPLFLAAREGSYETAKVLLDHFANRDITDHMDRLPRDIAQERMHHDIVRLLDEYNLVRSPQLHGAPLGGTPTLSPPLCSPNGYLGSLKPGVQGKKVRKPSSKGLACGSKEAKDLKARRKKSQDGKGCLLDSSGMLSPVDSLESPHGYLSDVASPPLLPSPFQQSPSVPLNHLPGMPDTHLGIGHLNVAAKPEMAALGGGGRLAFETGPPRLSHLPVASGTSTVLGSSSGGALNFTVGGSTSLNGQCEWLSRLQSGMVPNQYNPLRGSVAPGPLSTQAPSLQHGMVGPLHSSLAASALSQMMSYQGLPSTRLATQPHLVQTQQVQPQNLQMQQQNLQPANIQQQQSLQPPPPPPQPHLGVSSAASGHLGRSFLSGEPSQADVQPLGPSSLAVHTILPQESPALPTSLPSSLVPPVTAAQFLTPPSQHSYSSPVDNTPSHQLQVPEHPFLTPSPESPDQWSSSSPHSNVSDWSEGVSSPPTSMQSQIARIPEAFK

Our source for the binding values is article PMC5346697.

For test [1], the target named is p62/SQSTM1 (endogenous) (human (endogenous in HEK293)) (UniProt Q13501). The experiment in a line: co-IP; endogenous proteins of HEK293 cells cultured with BFA1 under nutrient-rich or nutrient-deprivation conditions (also shCon, shp62 or His-Ub cells); precipitated with anti-LC3, anti-p62 or anti-MEKK1 (IgG control), blotted with anti-Notch1; lysis in 20 mM Tris-HCl pH 7.4, 2 mM EDTA, 25 mM NaF, 1% Triton X-100; Protein A agarose, 4°C.

Test [2] addresses MEKK1 (endogenous) (human (endogenous in HEK293)) (UniProt Q13233). The description is as above.
Test [3] deals with p62/SQSTM1 (endogenous) (human (endogenous in HEK293)) (UniProt Q13501). The experiment in a line: co-IP; endogenous proteins of HEK293 cells with Fbw7 knockdown (shFbw7), BFA1, nutrient-rich or nutrient-deprivation; precipitated with anti-p62, blotted with anti-Notch1.
Test [4] has the same target. Put plainly: condition: only in cells with His-Ub-7KR (no polyubiquitin chains); co-IP; endogenous proteins of HEK293 cells with His-Ub-7KR (all seven lysines of ubiquitin to arginine), BFA1, nutrient-rich or nutrient-deprivation; precipitated with anti-p62, blotted with anti-Notch1.

Turning to “Notch1 intracellular domain (endogenous) (from UniProt P46531 1754-2555) (domain or fragment)”, the binding entry was “binds” in test [1], “binds” in test [2], “no binding (condition: with Fbw7 knockdown (shFbw7))” in test [3] and “no binding” in test [4].
